The values below come from patent publication US20140199692.

Protein sequences, listed by entry. Tags and fused reporters are not part of them. Residues count along the entry.
UniProt P06730, 2-217: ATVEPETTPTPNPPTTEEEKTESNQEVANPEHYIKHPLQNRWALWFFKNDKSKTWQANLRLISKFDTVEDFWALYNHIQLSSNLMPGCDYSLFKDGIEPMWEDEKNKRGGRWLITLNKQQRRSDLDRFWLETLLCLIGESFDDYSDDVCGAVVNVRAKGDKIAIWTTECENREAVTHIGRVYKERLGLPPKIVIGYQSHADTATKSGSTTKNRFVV
UniProt P63073, 2-217: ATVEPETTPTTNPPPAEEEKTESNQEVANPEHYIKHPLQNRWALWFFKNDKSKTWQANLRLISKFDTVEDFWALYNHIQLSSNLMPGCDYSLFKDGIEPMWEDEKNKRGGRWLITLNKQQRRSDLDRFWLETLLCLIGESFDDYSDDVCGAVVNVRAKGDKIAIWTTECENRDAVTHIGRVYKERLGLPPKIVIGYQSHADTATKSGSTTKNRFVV

Series [1] deals with eIF4E (endogenous, in nuclear lysate) (UniProt P06730). The experiment in a line: competition with a labelled probe. The settings on record: cold oligo competes for complex in nuclear lysate; eIF4E-dependent complex, possibly indirect; protein in an extract; variant of LacZ-p4E-SE transcript (Pim-1 4E-SE).
Series [2] addresses eIF4E (endogenous, mouse nuclear extract) (Mus musculus) (UniProt P63073). The experiment in a line: pull-down. The conditions noted are these: nuclear IP from transfected NIH3T3; protein in an extract.
The target of the next series is eIF4E (Homo sapiens) (UniProt P06730). The experiment in a line: EMSA. The conditions noted are these: 5' m7G cap; partial shift; NET-2 buffer, 3 mM MgCl2, RT; purified recombinant protein; protein details: untagged (h4E); label: 3' 32P-pCp. On the technique in general: Mobility shift assays separate free from complexed probe on a gel.
For another series, the target named is eIF4E (Mus musculus) (UniProt P63073). As to the kind of experiment: EMSA. The conditions noted are these: 5' m7G cap; partial shift; NET-2 buffer, 3 mM MgCl2, tRNA, heparin, RT; purified recombinant protein; protein details: 6 kD solubility tag (m4E); label: 3' 32P-pCp.
Series [3] has as its target eIF4E (endogenous, in nuclear lysate) (UniProt P06730). The experiment in a line: EMSA. The settings on record: 5' m7G cap; high MW complex; lost on eIF4E depletion, supershifted by anti-eIF4E; protein in an extract; label: 3' 32P-pCp.

Construct, isoform or probe ends are uncertain for at least one entry. For some assays here: Results from cells or extracts need not show a direct contact.

With “GGGACUCAGGCGGGACAGUGCUGCAGCUCCCUGGCUUCUGUGGGCCCC [p4E-SE ribo-oligonucleotide competitor]”, the binding result in series [1] is given as “binds”.

Consider “UUUUUAAACACUAAAAUAUAUAAUUUAUAGUUAAGGCUAAAAAGUAUAUUUAUUGCAGAGGAUGUUCAUAAGGCCAGUAUGAUUUAUAAAUG [LacZ-3'UTR4 chimeric mRNA (cyclin D1 4E-SE)]”, for which the binding result in series [2] is given as “binds”.

As for “GGGACUCAGGCGGGACAGUGCUGCAGCUCCCUGGCUUCUGUGGGCCCC [LacZ-p4E-SE transcript (Pim-1 4E-SE)]”, the binding result (with eIF4E (Homo sapiens); with eIF4E (Mus musculus); in series [3]) was “binds” each time.
